Laboratory results reported in article PMC6877594, “Atomic structure of the human herpesvirus 6B capsid and capsid-associated tegument complexes” (Nature Communications, 2019).
Read-outs that look alike come from different tables or passages of the source. No constants are given. Whether binding was seen depends on the method and setting. Some binding calls cover weakened binding; strength is not graded here.

Protein sequences, listed by entry. Tags and fused reporters are not part of them.
UniProt P0DTP3: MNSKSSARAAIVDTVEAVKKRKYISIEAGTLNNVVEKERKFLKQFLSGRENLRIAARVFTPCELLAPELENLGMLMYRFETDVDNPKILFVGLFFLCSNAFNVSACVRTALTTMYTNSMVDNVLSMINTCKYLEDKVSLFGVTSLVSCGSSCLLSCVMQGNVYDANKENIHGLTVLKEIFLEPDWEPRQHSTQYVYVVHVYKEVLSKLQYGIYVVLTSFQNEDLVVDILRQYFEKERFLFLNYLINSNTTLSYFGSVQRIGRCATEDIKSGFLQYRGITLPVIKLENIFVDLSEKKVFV

Assays:
Assay in all cases: cryo-EM structure; in situ in HHV-6B (Z29) virions pelleted from SupT1 culture supernatant and resuspended in PBS; icosahedral reconstruction ~5.1 Å, sub-particle reconstructions at the fivefold, threefold and twofold axes at 3.82, 3.77 and 3.77 Å; atomic models of 59 conformers
[1] = target: T1, major capsid protein (MCP) of human herpesvirus 6B (human herpesvirus 6B (Z29 strain)) (UniProt Q9QJ26)
T1 sequence: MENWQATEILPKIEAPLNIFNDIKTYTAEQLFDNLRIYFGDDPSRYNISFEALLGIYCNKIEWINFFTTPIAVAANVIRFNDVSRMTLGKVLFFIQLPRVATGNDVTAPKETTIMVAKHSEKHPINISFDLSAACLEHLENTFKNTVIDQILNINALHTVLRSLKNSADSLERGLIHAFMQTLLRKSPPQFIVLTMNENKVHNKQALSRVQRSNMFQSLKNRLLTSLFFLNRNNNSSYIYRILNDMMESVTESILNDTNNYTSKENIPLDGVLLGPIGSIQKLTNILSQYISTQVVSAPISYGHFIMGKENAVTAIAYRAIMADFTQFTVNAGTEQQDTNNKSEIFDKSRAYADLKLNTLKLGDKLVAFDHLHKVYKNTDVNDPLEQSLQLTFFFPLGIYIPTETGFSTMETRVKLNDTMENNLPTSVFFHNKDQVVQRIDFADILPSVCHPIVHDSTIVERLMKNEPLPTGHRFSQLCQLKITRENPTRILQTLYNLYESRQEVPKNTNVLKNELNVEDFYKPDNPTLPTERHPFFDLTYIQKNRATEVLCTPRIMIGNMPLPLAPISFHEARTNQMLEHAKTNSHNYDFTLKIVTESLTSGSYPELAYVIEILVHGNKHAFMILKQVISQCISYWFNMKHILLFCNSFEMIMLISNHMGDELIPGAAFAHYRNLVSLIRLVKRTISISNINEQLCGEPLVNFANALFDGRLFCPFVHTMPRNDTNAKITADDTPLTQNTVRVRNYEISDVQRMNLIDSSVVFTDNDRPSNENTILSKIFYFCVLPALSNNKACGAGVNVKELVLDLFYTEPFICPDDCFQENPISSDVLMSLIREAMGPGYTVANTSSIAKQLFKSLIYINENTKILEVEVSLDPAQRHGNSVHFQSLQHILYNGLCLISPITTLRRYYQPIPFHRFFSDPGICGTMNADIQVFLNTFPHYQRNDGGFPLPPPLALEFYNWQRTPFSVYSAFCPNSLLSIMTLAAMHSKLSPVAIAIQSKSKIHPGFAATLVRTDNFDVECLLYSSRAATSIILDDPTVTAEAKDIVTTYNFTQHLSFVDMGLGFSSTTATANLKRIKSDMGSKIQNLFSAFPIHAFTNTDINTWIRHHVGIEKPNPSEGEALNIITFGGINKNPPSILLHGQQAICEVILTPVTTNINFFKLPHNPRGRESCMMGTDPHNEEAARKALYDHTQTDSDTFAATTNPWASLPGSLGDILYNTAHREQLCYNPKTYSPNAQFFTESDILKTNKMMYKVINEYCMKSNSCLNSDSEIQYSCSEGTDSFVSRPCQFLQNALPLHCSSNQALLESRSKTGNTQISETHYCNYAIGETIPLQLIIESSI

[2] = target: T2, triplex dimer protein (Tri2) of human herpesvirus 6B (human herpesvirus 6B (Z29 strain)) (UniProt Q9QJ27)
T2 sequence: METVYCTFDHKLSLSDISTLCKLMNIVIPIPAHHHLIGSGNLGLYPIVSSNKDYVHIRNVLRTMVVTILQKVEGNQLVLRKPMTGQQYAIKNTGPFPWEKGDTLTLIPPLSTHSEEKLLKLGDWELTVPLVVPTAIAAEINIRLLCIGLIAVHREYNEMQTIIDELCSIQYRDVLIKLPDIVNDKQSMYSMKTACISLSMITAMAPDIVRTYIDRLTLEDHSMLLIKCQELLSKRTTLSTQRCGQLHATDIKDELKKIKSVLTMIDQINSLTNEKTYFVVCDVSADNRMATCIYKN

[3] = target: T3, smallest capsid protein (SCP) of human herpesvirus 6B, U32 gene product (human herpesvirus 6B (Z29 strain)) (UniProt P0DTP1)
T3 sequence: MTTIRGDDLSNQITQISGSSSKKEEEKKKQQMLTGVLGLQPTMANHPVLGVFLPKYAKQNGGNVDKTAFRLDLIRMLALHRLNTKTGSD

[4] = target: triplex monomer protein (Tri1) of human herpesvirus 6B (human herpesvirus 6B (Z29 strain)) (UniProt P0DTP3)
[5] = target: tegument protein pU11 of human herpesvirus 6B (human herpesvirus 6B (Z29 strain)) (UniProt P0DTO1)
[6] = target: T1, major capsid protein (MCP) of human herpesvirus 6B (human herpesvirus 6B (Z29 strain)); remark: listed apart in the source
[7] = target: T2, triplex dimer protein (Tri2) of human herpesvirus 6B (human herpesvirus 6B (Z29 strain)); remark: listed apart in the source

triplex monomer protein (Tri1) of human herpesvirus 6B (from UniProt P0DTP3 1-299)
binding [1]: binds
binding [2]: binds

B1: tegument protein pU11 of human herpesvirus 6B (natural protein)
chain: MDLKAQSIPFAWLDRDKVQRLTNFLSNLENLENVDLREHPYVTNSCVVREGEDVDELKTLYNTFILWLMYHYVLSKRKPDYNAIWQDITKLQNVVNEYLKSKGLNKGNFENMFTNKEKFESQFSDIHRALLRLGNSIRWGSNVPIDTPYVNLTAEDSSEIENNLQDAEKNMLWYTVYNINDPWDENGYLVTSINKLVYLGKLFVTLNQSWSKLEKVAMSQIVTTQNHLSGHLRKNENFNAVYSQRVLQTPLTGQRVESFLKIITSDYEIIKSSLESYSASKAFSVPENGPHSLMDFASLDGRMPSDLSLPSISIDTKRPSADLARLKISQPKSLDAPLKTQRRHKFPESDSVDNAGGKILIKKETLGGRDVRATTPVSSVSLMSGVEPLSSLTSTNLDLRDKSHGNYRIGPSGILDFGVKLPAEAQSNTGDVDLLQDKTSIRSPSSGITDVVNGLANLNLRQNKSDVSRPWSKNTAANADVFDPVHRLVSEQTGTPFVLNNSDVAGSEAKLTTHSTETGVSPHNVSLIKDLRDKDGFRKQKKLDLLGSWTKEKNDKAIVHSREVTGDSGDATETVTARDSPVLRKTKHANDIFAGLNKKYARDVSRGGKGNSRDLYSGGNAEKKETSGKFNVDKEMTQNEQEPLPNLMEAARNAGEEQYVQAGLGQRVNKILAEFTNLISLGEKGIQDILHNQSGTELKLPTENKLGRESEEANVERILEVSDPQNLFKNFKLQNDLDSVQSPFRLPNADLSRDLDSVSFKDALDVKLPGNGEREIDLALQKVKAGERETSDFKVGQDETLIPTQLMKVETPEEKDDVIEKMVLRIRQDGETDEETVPGPGVAESLGIAAKDKSVIAS
notes: tegument protein pU11 of human herpesvirus 6B, strain Z29; 858 a.a. long; wild-type full-length protein inside the virion, only a.a; 7-275 (pU11nt) are resolved and modelled; also called pU11nt (the resolved N-terminal one-third, a.a. 7-275); pU11nt-a-1
binding [3]: binds
binding [4]: binds
binding [5]: binds
binding [6]: binds
binding [7]: binds

B2: smallest capsid protein (SCP) of human herpesvirus 6B, U32 gene product (natural protein)
chain: MTTIRGDDLSNQITQISGSSSKKEEEKKKQQMLTGVLGLQPTMANHPVLGVFLPKYAKQNGGNVDKTAFRLDLIRMLALHRLNTKTGSD
notes: smallest capsid protein (SCP), U32 gene product of human herpesvirus 6B, strain Z29; 89 residues long; the model covers residues 23-83, residues 1-22 are disordered; Native protein in the virion capsid; 16 conformers modelled in each asymmetric unit; also called penton SCP; hexon SCP
binding [6]: binds

B3: major capsid protein (MCP) of human herpesvirus 6B (natural protein)
chain: MENWQATEILPKIEAPLNIFNDIKTYTAEQLFDNLRIYFGDDPSRYNISFEALLGIYCNKIEWINFFTTPIAVAANVIRFNDVSRMTLGKVLFFIQLPRVATGNDVTAPKETTIMVAKHSEKHPINISFDLSAACLEHLENTFKNTVIDQILNINALHTVLRSLKNSADSLERGLIHAFMQTLLRKSPPQFIVLTMNENKVHNKQALSRVQRSNMFQSLKNRLLTSLFFLNRNNNSSYIYRILNDMMESVTESILNDTNNYTSKENIPLDGVLLGPIGSIQKLTNILSQYISTQVVSAPISYGHFIMGKENAVTAIAYRAIMADFTQFTVNAGTEQQDTNNKSEIFDKSRAYADLKLNTLKLGDKLVAFDHLHKVYKNTDVNDPLEQSLQLTFFFPLGIYIPTETGFSTMETRVKLNDTMENNLPTSVFFHNKDQVVQRIDFADILPSVCHPIVHDSTIVERLMKNEPLPTGHRFSQLCQLKITRENPTRILQTLYNLYESRQEVPKNTNVLKNELNVEDFYKPDNPTLPTERHPFFDLTYIQKNRATEVLCTPRIMIGNMPLPLAPISFHEARTNQMLEHAKTNSHNYDFTLKIVTESLTSGSYPELAYVIEILVHGNKHAFMILKQVISQCISYWFNMKHILLFCNSFEMIMLISNHMGDELIPGAAFAHYRNLVSLIRLVKRTISISNINEQLCGEPLVNFANALFDGRLFCPFVHTMPRNDTNAKITADDTPLTQNTVRVRNYEISDVQRMNLIDSSVVFTDNDRPSNENTILSKIFYFCVLPALSNNKACGAGVNVKELVLDLFYTEPFICPDDCFQENPISSDVLMSLIREAMGPGYTVANTSSIAKQLFKSLIYINENTKILEVEVSLDPAQRHGNSVHFQSLQHILYNGLCLISPITTLRRYYQPIPFHRFFSDPGICGTMNADIQVFLNTFPHYQRNDGGFPLPPPLALEFYNWQRTPFSVYSAFCPNSLLSIMTLAAMHSKLSPVAIAIQSKSKIHPGFAATLVRTDNFDVECLLYSSRAATSIILDDPTVTAEAKDIVTTYNFTQHLSFVDMGLGFSSTTATANLKRIKSDMGSKIQNLFSAFPIHAFTNTDINTWIRHHVGIEKPNPSEGEALNIITFGGINKNPPSILLHGQQAICEVILTPVTTNINFFKLPHNPRGRESCMMGTDPHNEEAARKALYDHTQTDSDTFAATTNPWASLPGSLGDILYNTAHREQLCYNPKTYSPNAQFFTESDILKTNKMMYKVINEYCMKSNSCLNSDSEIQYSCSEGTDSFVSRPCQFLQNALPLHCSSNQALLESRSKTGNTQISETHYCNYAIGETIPLQLIIESSI
notes: major capsid protein (MCP) of human herpesvirus 6B, strain Z29; 1345 amino acids long; domains described over a.a; 1-1345; Native protein in the virion capsid; 16 conformers (15 hexon, 1 penton) modelled in each asymmetric unit; also called penton MCP; hexon MCP
binding [6]: binds

B4: triplex dimer protein (Tri2) of human herpesvirus 6B (natural protein)
chain: METVYCTFDHKLSLSDISTLCKLMNIVIPIPAHHHLIGSGNLGLYPIVSSNKDYVHIRNVLRTMVVTILQKVEGNQLVLRKPMTGQQYAIKNTGPFPWEKGDTLTLIPPLSTHSEEKLLKLGDWELTVPLVVPTAIAAEINIRLLCIGLIAVHREYNEMQTIIDELCSIQYRDVLIKLPDIVNDKQSMYSMKTACISLSMITAMAPDIVRTYIDRLTLEDHSMLLIKCQELLSKRTTLSTQRCGQLHATDIKDELKKIKSVLTMIDQINSLTNEKTYFVVCDVSADNRMATCIYKN
notes: triplex dimer protein (Tri2) of human herpesvirus 6B, strain Z29; domains clamp (a.a. 1-86), trunk (a.a. 87-181 and 276-296), embracing arm (a.a. 182-275); Native protein in the virion capsid; two conformers (Tri2A, Tri2B) of the same protein in each triplex; also called Tri2A; Tri2B
binding [7]: binds
